## Screening data, single-dose tests

By UniProt entry, the sequences of proteins in these tests, tags left out. Residues count along the entry.
UniProt P9WPC5, whole entry: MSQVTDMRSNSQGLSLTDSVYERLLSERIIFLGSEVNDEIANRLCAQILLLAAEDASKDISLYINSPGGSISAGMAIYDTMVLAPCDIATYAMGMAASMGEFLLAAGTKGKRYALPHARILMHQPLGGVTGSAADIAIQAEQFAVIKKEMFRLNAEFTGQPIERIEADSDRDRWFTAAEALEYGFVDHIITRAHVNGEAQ
UniProt P9WPC3, whole entry partner: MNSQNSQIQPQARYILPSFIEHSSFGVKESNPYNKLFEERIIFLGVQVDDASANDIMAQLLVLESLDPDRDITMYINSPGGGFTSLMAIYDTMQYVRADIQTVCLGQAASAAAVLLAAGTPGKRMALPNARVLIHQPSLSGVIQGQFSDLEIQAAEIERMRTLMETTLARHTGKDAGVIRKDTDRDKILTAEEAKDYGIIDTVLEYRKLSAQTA
UniProt P9WNZ1, whole entry: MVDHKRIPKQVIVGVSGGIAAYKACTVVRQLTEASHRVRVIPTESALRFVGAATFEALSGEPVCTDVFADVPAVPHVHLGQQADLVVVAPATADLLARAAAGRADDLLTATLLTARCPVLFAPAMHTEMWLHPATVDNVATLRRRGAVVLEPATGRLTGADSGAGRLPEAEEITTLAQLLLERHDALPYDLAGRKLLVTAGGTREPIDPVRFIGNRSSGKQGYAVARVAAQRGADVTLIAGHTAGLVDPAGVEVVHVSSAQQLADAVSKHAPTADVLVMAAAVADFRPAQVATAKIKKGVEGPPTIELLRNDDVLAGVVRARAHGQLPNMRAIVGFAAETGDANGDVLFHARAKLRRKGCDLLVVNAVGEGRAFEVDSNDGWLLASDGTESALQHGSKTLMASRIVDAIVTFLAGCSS
UniProt Q8IDJ8, 1-583: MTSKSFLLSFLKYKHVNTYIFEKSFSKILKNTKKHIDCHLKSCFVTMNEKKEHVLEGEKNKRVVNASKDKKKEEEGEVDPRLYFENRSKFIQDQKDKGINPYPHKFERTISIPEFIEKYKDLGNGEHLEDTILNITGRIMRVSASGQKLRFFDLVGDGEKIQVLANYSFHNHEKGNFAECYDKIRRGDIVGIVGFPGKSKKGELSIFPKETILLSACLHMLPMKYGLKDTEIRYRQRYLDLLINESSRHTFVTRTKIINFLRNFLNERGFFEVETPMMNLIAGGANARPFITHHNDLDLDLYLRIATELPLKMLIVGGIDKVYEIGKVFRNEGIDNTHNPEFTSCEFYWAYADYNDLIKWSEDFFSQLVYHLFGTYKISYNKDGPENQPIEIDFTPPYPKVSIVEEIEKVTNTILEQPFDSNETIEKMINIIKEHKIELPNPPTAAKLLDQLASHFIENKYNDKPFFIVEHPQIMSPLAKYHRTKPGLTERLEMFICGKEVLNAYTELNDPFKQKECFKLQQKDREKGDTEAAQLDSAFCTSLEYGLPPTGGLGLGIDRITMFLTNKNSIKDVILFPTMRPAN

Measurements from “University of Dundee, Small-Polar-MMV Screening Library” (2021), ChEMBL document CHEMBL3988442.

Results are given as percent effect.
The controls that fix the scale are not given in the record; negative values are as filed.
Compounds were drawn at random from those tested, without regard to their results.
Two or more numbers in one place are separate tests of the same structure; such repeats can differ widely.
A dash means the value is not listed here; it may have been measured.

ClpP1P2: 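Protease assay of ClpP1P2, read by the AMC dye that it sets free. Target: ClpP1P2, Mycobacterium tuberculosis (UniProt P9WPC5 and UniProt P9WPC3). Concentration: 50 µM. Higher reads as stronger inhibition, judged from the few compounds that gave an IC50. Most other retested compounds had strongly negative values. About 69,000 compounds were tested under these conditions; 0.015% (about 10) showed 50% or more at least once.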
CoaBC: 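Enzyme assay of CoaBC with a phosphate dye (Biomol Green) read at 650 nm. Target: Coenzyme A biosynthesis protein CoaBC, Mycobacterium tuberculosis (UniProt P9WNZ1). Concentration: 30 µM. Direction is inferred from only a few compounds that gave an IC50; most scored high, so higher reads as stronger inhibition. Most strong results did not repeat in a second test. About 67,000 compounds were tested under these conditions; 0.06% (about 40) showed 50% or more at least once.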
PfKRS1: 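Lysine-tRNA ligase, Plasmodium falciparum 3D7 (UniProt Q8IDJ8). Enzyme assay of the cytosolic lysyl-tRNA synthetase in 384-well plates, read by luminescence. Concentration: 30 µM. Direction is inferred from only a few compounds that gave an IC50; most scored high, so higher reads as stronger inhibition. Of about 69,000 compounds tested this way, about 49 (0.071%) reached 50% or more in at least one test.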
Leishmania in macrophages: 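Cell assay of Leishmania donovani living inside macrophages; the read-out is not stated. Concentration: 30 µM. The record gives no direction; compounds that gave an IC50 in retests scored well above the rest, so higher reads as stronger inhibition. About 69,000 compounds were tested under these conditions; 1.5% (about 1,000) showed 50% or more at least once.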

Compound,ClpP1P2,CoaBC,PfKRS1,Leishmania in macrophages
CCOc1ccc(S(=O)(=O)NCCCc2ccc(N(C)C)cc2)cc1F,8.119,5.285,8.137,19.82 and 47.32
CN1CCO[C@@H]2CN(C(=O)COc3cccc(Cl)c3)C[C@@H]2C1,0.3697,-,5.084,-
Cc1cc(C)c(CNc2ncnc3c2cnn3C)c(=O)[nH]1,5.628,8.884,3.979,-25.5
Cc1nc(-c2ccsc2)ccc1C(=O)N(C)CC(F)(F)F,-29.5,2.551,1.913,21.57
Cc1cc(NC(=O)N2CCCC2CN2CCOCC2)nn1C (stereo not drawn),-2.23,7.589,0.5201,12.11
O=C(Nc1ccc(CCN2CCC(O)CC2)cc1)C1CCCCC1,-8.028,-1.868,0.6736,35.98
O=C(NCCSc1ccccc1F)NCc1cccnc1,-1.035,-3.891,4.703,9.931
CCN(Cc1ccccc1)C1CCN(c2cc(C)nn2C)C1=O (stereo not drawn),-7.118,3.507,2.123,13.67
O=C(O)[C@]12CCCN(Cc3ccsc3)C[C@H]1CN(c1ncccn1)C2,-16.61,5.882,3.977,-
CC(C(=O)NCc1ccc(N2CCCC2)nc1)S(C)(=O)=O (stereo not drawn),-13.99,-2.445,-2.505,7.085
CS(=O)(=O)c1ccc(OCCNCc2ccc(F)cc2)cc1,-8.775,-3.515,7.531,17.93
CC(=O)c1cc2c(=O)[nH]c(=O)n(C)c2nc1C,2.643,-8.019,3.167,7.984
O=C(Cc1ccccc1Cl)Nc1cc(N2CCCC2)ncn1,4.033,8.946,7.59,0.6651
CN(Cc1ccco1)Cc1cnc2n1CCN(S(C)(=O)=O)CC2,-3.984,-,-3.588,-
Cc1n[nH]c(C)c1C1COCCN1C(=O)c1cc(F)ccc1F (stereo not drawn),-29.81,0.5263,1.961,4.273
O=C(O)C(F)(F)F.O=C(c1cscn1)N1CCC2(CCN(Cc3nccs3)CC2)C1,-,-,-,-12.87
O=C(O)C(F)(F)F.[H][C@@]12C[C@H](C(=O)NCCOC)CN(Cc3ccoc3)[C@]1([H])CCO2,-,-,-,31.6
COc1cccc(CNCCc2cc(F)cc3c2OCOC3)c1,-15.76,-18.14,0.9029,10.91
COCc1ncn2c1CN(C(=O)C1CC=CC1)CC2,-2.293,3.084,4.724,3.231
Cc1cnn(CC2CCN(CC(O)COc3ccc(F)cc3)CC2)c1 (stereo not drawn),2.432,2.899,-2.459,31.62
COc1cc(CN2CCN(CC3CC3)[C@@H]3CS(=O)(=O)C[C@@H]32)cc(OC)c1,-3.309,-0.5141,0.2002,-
COC(=O)c1cccc(OCCn2nc(-c3cccs3)oc2=O)c1,6.41,-1.686,6.951,7.601
O=C(Cn1ccc2c(Cl)cccc21)N[C@@H](C(=O)O)c1ccccc1,8.108,2.826,8.152,11.07
Cc1nc(N2CCCC2)nc2c1CN(C(=O)N1CCOCC1)CC2,14.94,2.177,-0.1132,42.32
COc1ccc(OC)c(C(C)NC(=O)Nc2nnc(C)s2)c1 (stereo not drawn),2.607,5.579,6.151,2.485
Cc1cc(C)n(CC2CN(CCOc3cccc(F)c3)CCO2)n1 (stereo not drawn),-33.65,3.84,0.5745,43.55
CSc1ncccc1C(=O)N1CCCC1c1ccc(C(=O)N(C)C)s1 (stereo not drawn),-8,2.662,0.5313,-9.684
[H][C@]12CCC[C@@]1(COCC1CCOCC1)CN(C(=O)c1ncccn1)C2,-,-,-,10.38
CC1(C)Cc2nc(C(C)(C)C)ncc2C(NC(=O)CN)C1 (stereo not drawn),4.524,-2.133,0.9874,22.25
CCC(CN1CCCCC1)NC(=O)C1(c2cccc(F)c2)CC1 (stereo not drawn),-13.9,-13.07,2.519,-
Cc1nc(CN2CCCN(C(=O)c3cccnc3O)CC2)cs1,-4.98,3.684,-1.814,3.087
COCCN1CCN(CC(=O)N(C)Cc2ccc(C)o2)CC1C (stereo not drawn),7.935,-0.2415,5.059,31.7
CCN1CC(CN(C)Cc2nc(-c3ccc(F)cc3)oc2C)CC1=O (stereo not drawn),-9.18,0.4959,-7.37,13.51
Cc1cccc(CN2CCN(C(=O)c3cnc(C)[nH]c3=O)CC2)c1,-10.39,-5.556,-1.409,5.431
CN(C)Cc1nnc(C2CCCN(c3cc(C(F)(F)F)ccn3)C2)n1C (stereo not drawn),-22.77,-1.615,5.139,-6.007
Cn1cc(CN2CCCC(CCCc3ccccn3)(C(N)=O)C2)cn1 (stereo not drawn),0.5549,-0.4902,1.536,6.096
Cc1ccc(C2NC(=O)c3cc(C(C)C)sc3N2)cc1 (stereo not drawn),-14.43,3.398,3.205,14.65
O=C(O)C(F)(F)F.O=C(O)C(F)(F)F.O=C(O)C(F)(F)F.[H][C@@]12CO[C@@H](CN3CCN(C)CC3)[C@]1([H])CCN(Cc1ccc(C)s1)C2,-,-,-,26.12
CC(C)CNC(=O)NC(=O)CNc1ccccc1SCC(C)C#N (stereo not drawn),1.646,13.01,0.5448,46.89
Cn1cnc2c1C(COCC1CC1)CN(Cc1ccc3c(c1)OCO3)C2 (stereo not drawn),-6.892,-1.863,-1.385,-
COCC(=O)NCc1cnc(C)nc1-c1cn(C)c2ccc(OC)cc12,-7.211,6.311,-0.2873,7.699
CCC1=NC2(CCC(C(=O)Nc3ccc(C)nc3)CC2)C(=O)N1C (stereo not drawn),0.6004,2.927,2.09,3.746
COC1CN(C(=O)NCC(N)=O)CCC(=O)N(C)c2ccccc21 (stereo not drawn),-1.119,-1.211,3.722,-2.867
[H][C@@]12CS(=O)(=O)C[C@]1([H])N(C(=O)c1cc(C(C)C)no1)CCN2CC1CC1,-,-,-,26.52
CCn1ncc(Nc2[nH]cnc3nncc2-3)c1C,13.42,8.054,0.343,61.85
CC(C(=O)N(C)C)S(=O)(=O)c1cc2c(cc1Cl)OCCO2 (stereo not drawn),3.764,5.305,5.176,7.318
COc1ccc2cnn(CC(=O)NC3CCCC3)c(=O)c2c1OC,-12.86,-3.222,5.779,9.173
CCN(C(=O)NCCc1ccc(C)cc1C)C(C)CS(C)(=O)=O (stereo not drawn),-0.7452,-,-0.4721,4.41
Cc1ccc(S(=O)(=O)NCC(C)C#N)cc1Br (stereo not drawn),-3.354,1.222,3.603,-0.0977
Cc1nc(CN2CCN(C(=O)CC(C)(C)c3ccccc3)CC2)no1,6.179,0,7.575,11.76
Cc1cn2c(CN(C)C(=O)c3nccnc3N)c(C)nc2s1,-6.913,-2.273,0.4257,3.569
COc1ccc(CC(=O)N2CCN(Cc3ccco3)C[C@@H]2C)cc1,-6.797,2.153,-1.153,21.13
CC1CCCN(C(=O)c2ccn(COc3ccccc3)n2)C1 (stereo not drawn),-10.91,0.4619,-1.327,-77.57
COc1ccc(Br)c(C(=O)NC(CC(=O)O)c2cccs2)c1 (stereo not drawn),6.234,5.216,4.568,24.45

The last 4 entries again:

Result for Cc1cn2c(CN(C)C(=O)c3nccnc3N)c(C)nc2s1 was ClpP1P2: -6.913%; CoaBC: -2.273%; PfKRS1: 0.4257%; Leishmania in macrophages: 3.569%.
Result for COc1ccc(CC(=O)N2CCN(Cc3ccco3)C[C@@H]2C)cc1 was ClpP1P2: -6.797%; CoaBC: 2.153%; PfKRS1: -1.153%; Leishmania in macrophages: 21.13%.
Result for CC1CCCN(C(=O)c2ccn(COc3ccccc3)n2)C1 (stereo not drawn) was ClpP1P2: -10.91%; CoaBC: 0.4619%; PfKRS1: -1.327%; Leishmania in macrophages: -77.57%.
Result for COc1ccc(Br)c(C(=O)NC(CC(=O)O)c2cccs2)c1 (stereo not drawn) was ClpP1P2: 6.234%; CoaBC: 5.216%; PfKRS1: 4.568%; Leishmania in macrophages: 24.45%.